Results are given in words; binding and its absence hold for the method and conditions named.
Experiments:
[1] = molecular target: His-tagged Prn-E Δ399–407 (major loop deletion) (B. bronchiseptica) (UniProt Q03035); assay: SEC; Superdex 200; loop deletion mutants of Prn-E after refolding and purification; both purified
[2] = molecular target: His-tagged Prn-E Δ190–199 (minor loop deletion) (B. bronchiseptica) (UniProt Q03035); assay: as above

Substance	binding [1]	binding [2]
His-tagged Prn-E Δ399–407 (major loop deletion) (from UniProt Q03035 38-640) (domain or fragment)	no binding	
His-tagged Prn-E Δ190–199 (minor loop deletion) (from UniProt Q03035 38-640) (domain or fragment)		no binding
